No constants are given. Whether binding was seen depends on the method and setting. In cells and extracts the contact can be indirect. A yes stands for co-enrichment or nearness to the bait. Other partners may have been found. Sequences can lack the tags named with a protein.

The chains behind the UniProt entries cited, without tags or fusion partners.
UniProt Q969H0: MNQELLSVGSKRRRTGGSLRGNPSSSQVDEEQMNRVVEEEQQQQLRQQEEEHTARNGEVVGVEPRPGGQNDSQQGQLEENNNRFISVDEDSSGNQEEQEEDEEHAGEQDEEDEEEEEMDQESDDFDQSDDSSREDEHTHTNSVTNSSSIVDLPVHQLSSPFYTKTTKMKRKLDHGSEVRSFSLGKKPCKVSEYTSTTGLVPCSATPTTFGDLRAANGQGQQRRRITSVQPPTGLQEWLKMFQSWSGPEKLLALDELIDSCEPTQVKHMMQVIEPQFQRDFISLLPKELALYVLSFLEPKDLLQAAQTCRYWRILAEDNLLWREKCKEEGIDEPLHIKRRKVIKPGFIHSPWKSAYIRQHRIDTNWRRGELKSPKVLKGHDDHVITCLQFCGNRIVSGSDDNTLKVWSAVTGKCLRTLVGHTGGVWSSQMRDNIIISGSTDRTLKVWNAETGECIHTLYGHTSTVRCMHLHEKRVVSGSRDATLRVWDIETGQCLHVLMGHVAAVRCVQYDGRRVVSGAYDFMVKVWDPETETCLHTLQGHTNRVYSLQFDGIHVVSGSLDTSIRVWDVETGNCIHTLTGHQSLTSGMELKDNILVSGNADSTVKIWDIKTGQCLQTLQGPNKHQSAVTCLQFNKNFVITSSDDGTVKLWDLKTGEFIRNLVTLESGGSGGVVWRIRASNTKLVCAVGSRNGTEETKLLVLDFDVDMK

The test addresses T1, glutaminyl tRNA synthetase (QARS), Flag-tagged (human) (UniProt P47897).
T1 sequence: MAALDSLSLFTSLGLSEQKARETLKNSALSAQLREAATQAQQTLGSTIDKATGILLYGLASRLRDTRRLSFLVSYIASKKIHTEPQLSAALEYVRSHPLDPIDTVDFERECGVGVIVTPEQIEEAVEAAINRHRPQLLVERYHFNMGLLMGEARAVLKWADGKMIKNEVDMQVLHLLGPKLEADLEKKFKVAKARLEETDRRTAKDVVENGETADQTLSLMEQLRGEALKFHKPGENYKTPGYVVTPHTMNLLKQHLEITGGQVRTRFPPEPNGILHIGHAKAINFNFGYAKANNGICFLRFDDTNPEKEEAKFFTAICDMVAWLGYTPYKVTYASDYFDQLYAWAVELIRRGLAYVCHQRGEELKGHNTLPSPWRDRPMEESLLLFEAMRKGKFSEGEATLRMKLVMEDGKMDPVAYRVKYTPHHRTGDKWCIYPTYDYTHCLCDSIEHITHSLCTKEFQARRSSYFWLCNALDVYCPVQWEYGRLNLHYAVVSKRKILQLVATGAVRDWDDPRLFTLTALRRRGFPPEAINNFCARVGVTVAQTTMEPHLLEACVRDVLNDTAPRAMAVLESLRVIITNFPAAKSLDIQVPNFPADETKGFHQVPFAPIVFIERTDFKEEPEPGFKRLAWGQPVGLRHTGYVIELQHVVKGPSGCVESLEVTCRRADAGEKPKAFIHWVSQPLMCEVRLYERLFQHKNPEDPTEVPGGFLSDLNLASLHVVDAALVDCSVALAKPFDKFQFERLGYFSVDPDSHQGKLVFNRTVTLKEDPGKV
Put plainly: affinity purification with mass spectrometry; TAP-MS: HCT116+/+ cells transfected with pcDNA3.1-Flag or pcDNA3.1-QARS-Flag, immunoprecipitation after 36 h, trypsin digestion, UPLC-QE MS/MS.

For the substance “F-box and WD repeat domain-containing 7 (FBW7), in HCT116+/+ cells (from UniProt Q969H0 1-707)”, the binding entry was “binds”.

Values taken from PMC12698188.
